Experimental data reported in publication doi:10.1101/2025.02.27.640524 (bioRxiv, 2025).

By UniProt entry, the sequences of proteins in these tests, tags left out.
UniProt G2XEY3: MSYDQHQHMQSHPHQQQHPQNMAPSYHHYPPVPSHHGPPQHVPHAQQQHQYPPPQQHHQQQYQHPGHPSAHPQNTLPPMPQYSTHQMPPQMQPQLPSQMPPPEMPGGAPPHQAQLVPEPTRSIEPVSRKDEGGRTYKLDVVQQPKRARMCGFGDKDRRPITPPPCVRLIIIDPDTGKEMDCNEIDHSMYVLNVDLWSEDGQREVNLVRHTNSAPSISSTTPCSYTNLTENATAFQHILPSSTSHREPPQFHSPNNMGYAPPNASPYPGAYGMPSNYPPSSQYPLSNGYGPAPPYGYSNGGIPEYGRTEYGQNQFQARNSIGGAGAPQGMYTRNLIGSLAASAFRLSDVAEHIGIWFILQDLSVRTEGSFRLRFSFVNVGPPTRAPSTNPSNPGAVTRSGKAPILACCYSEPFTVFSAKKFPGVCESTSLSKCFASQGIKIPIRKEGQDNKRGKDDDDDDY
UniProt G2X9D1: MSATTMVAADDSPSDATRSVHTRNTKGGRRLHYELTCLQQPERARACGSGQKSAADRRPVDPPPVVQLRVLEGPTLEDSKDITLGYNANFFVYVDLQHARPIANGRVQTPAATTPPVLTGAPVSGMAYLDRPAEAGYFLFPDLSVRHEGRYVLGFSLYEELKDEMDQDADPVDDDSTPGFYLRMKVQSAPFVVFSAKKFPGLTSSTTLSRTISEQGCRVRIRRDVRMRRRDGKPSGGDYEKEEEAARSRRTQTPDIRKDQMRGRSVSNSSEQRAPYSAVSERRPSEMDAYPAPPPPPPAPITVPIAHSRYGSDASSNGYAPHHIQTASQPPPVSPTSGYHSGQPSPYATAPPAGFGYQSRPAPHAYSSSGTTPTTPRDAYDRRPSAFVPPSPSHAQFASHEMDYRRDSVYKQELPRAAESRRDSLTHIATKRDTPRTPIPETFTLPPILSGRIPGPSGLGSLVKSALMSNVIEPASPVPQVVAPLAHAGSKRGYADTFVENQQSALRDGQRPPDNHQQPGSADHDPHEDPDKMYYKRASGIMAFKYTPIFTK

B1: Vos1 (VosA counterpart), V. dahliae, endogenous (protein, UniProt G2X5B4 1-296)
chain: MAGLANVQSYSGLDSPQDPIISSGDYVLTMCQEPVIGLVAGGKDKDRKPLDPPPVVKLDVSHQRDPAGLFLSNPYNFLTCHLVKVGDHNIETPVPGNKLVGTVVSSLHRLKDKDNQDVAYFVFGDVSVKVEGRFRLVFTLFDMGGQDCTQLASIKSQPFNIFPNKLFPGLNESTYLTRAINDQGVRVRIRKDSRQSQTSKRNKRVAERFNDYMDNTRPQQRQREGLPLGVNYPSSGVGIDNVFGSLAPNMSMNPFPSPAHSSDSGLPSSVSMHGSSGPPADRFPDSGHGLWGRDYS

Molecular target: Vel2-GFP (V. dahliae VelB ortholog Vel2 fused to GFP) (Verticillium dahliae) (UniProt G2XEY3)
Experiment: affinity purification with mass spectrometry

Row | Molecule | binding
1 | Vel1 (VeA counterpart), V. dahliae, endogenous (from UniProt G2X9D1 1-552) | binds
2 | B1 | binds

Results are given in words; binding and its absence hold for the method and conditions named. Binding seen in cells or lysates may run through a third protein. Here binding means that the protein was enriched with, or labelled near, the bait; the list need not be complete.
